According to patent US6002008A, “Substituted 3-cyano quinolines” (American Cyanamid Company, priority 1998, dated 1999):
Several values for one entry are separate records, joined by “and”; a condition that tells them apart may be missing. Identical values can stand only once. For at least one compound, name, drawing or mass did not settle the structure.

Tested on: SKBR3
Assay: Inhibition of cancer cell growth as measured by cell number
Assay type: cell-based, human
Settings: SKBR3, 48 hours, Table 8

In the case of `CN(C)CC=CC(=O)Nc1ccc2ncc(C#N)c(Nc3cccc(Br)c3)c2c1` [Example 99, 4-Dimethylamino-but-2-enoic acid [4-(3-bromo-phenylamino)-3-cyano-quinolin-6-yl]-amide], the “Inhibition of Cancer Cell Growth as Measured by Cell Number (IC50)” value is reported as 0.1 µg/mL and 0.078 µg/mL.
